Reference: PubChem BioAssay AID602196 (INSERM, 2012)
Test: 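Genes whose knock-down alters cisplatin killing of lung cancer cells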. System: human A549 lung cancer cells. Reagents: siRNA pair against human genes. Time to read-out: 48 h transfection before cisplatin; time from cisplatin to read-out not stated. Treatment: cisplatin at a dose killing half of control-siRNA cells; exact dose and duration not given. Read-out: 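Shift in cisplatin death relative to control siRNA, from -50 (all cells die) to +50 (no cells die); siRNAs harmful on their own scored 0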. Scale: two-siRNA summed score (-2 to +2): higher = both siRNAs protect from cisplatin killing; -2 means both sensitise; mean protection from cisplatin (shift in death): higher = protection from cisplatin killing. Rule for the call: 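Each siRNA scores 0 if harmful alone by LDH or WST-1, otherwise +1 if it reduces and -1 if it increases cisplatin killing; a gene is active when both siRNAs agree (sum +2 or -2)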. Meaning of the calls: active = both siRNAs shift cisplatin killing the same way; inactive = no consistent shift, or siRNA harmful alone.
Here is an unselected part of about 23,000 reagents. In the full data, 455 (2%) are marked active. 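Active includes both protection and sensitisation; some change values fall well beyond the stated -50 to +50 range.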 Further read-outs or replicates are left out here. Reagent sequences are not shown. Not given: the amount of reagent.

| Gene | two-siRNA summed score (-2 to +2) | mean protection from cisplatin (shift in death) (%) | call |
| --- | --- | --- | --- |
| FLJ13072 | 1 | 22 | inactive |
| SLC25A31 | 0 | 7.2 | inactive |
| DIO1 (iodothyronine deiodinase 1) | 0 | -1.7 | inactive |
| EXOC7 (exocyst complex component 7) | -2 | -26.7 | active |
| FAP (fibroblast activation protein alpha) | -1 | -6.1 | inactive |
| LOC388900 | 1 | 11.3 | inactive |
| LYPD2 (LY6/PLAUR domain containing 2) | 1 | 11.8 | inactive |
| TICAM1 (TIR domain containing adaptor molecule 1) | 0 | -0.6 | inactive |
| ZIC5 (Zic family zinc finger 5) | 0 | 8.9 | inactive |
| KRT40 (keratin 40) | 0 | 7.8 | inactive |
| DENND2B (DENN domain containing 2B) | 0 | 10 | inactive |
| RAB14 (RAB14, member RAS oncogene family) | -1 | -34.9 | inactive |
| SMTNL2 (smoothelin like 2) | 0 | 6.9 | inactive |
| NDFIP1 (Nedd4 family interacting protein 1) | 0 | -2.1 | inactive |
| CLCC1 (chloride channel CLIC like 1) | 0 | -0.2 | inactive |
| BLOC1S6 (biogenesis of lysosomal organelles complex 1 subunit 6) | 0 | 1.8 | inactive |
| TAS2R14 (taste 2 receptor member 14) | 0 | 7.3 | inactive |
| RNF167 (ring finger protein 167) | 0 | -7.8 | inactive |
| EIF5A2 (eukaryotic translation initiation factor 5A2) | 1 | 13.9 | inactive |
| HIVEP3 (HIVEP zinc finger 3) | 0 | 1.8 | inactive |
| H2BC21 (H2B clustered histone 21) | 0 | 12.5 | inactive |
| C1QTNF4 (C1q and TNF related 4) | 0 | 4.2 | inactive |
| MEF2C (myocyte enhancer factor 2C) | -1 | -3.9 | inactive |
